This assay has as its target GST-FIP fusion (Arabidopsis thaliana) (UniProt F4KAZ9). The assay is described as follows: pull-down; GST-FIP with purified FtsH5 (1 μg) and agarose (GST) beads, 4 h on ice; 50 mM Tris-HCl, 200 mM NaCl, 1 mM EDTA, 1% Nonidet P-40, 1 mM DTT, 10 mM MgCl2, pH 8.0; 5 washes; Western blot with an anti-FtsH5 antibody; both purified. A general note: In western blotting, separated proteins are transferred to a membrane and probed.

By UniProt entry, the sequences of proteins in these tests, tags left out. Where a name states a change or a piece, a line headed by the entry shows the natural chain unless it says otherwise.
UniProt F4KAZ9: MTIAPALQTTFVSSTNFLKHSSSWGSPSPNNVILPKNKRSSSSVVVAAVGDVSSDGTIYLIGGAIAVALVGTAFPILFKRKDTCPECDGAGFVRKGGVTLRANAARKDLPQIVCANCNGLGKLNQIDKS
UniProt Q9FH02: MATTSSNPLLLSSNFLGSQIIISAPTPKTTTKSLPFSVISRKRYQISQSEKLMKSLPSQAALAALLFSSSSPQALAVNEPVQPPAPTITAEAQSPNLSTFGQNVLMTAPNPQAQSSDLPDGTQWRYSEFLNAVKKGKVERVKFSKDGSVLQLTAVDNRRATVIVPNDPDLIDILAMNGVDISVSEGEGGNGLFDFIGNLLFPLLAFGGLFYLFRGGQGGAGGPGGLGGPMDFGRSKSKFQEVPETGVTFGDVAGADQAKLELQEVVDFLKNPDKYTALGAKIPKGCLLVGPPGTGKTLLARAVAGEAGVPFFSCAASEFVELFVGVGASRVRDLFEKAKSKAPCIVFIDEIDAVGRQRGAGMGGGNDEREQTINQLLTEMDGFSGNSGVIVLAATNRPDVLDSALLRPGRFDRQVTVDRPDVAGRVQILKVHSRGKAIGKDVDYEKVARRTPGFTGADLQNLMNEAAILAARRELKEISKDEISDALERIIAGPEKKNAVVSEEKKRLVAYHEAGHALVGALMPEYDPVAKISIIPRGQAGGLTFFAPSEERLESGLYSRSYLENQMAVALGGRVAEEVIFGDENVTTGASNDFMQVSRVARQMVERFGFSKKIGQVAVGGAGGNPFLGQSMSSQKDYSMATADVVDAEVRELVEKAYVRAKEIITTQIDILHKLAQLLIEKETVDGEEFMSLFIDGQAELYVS

Results are given in words; binding and its absence hold for the method and conditions named. A result given as binding can be weak or reduced; the word gives no strength.

With “recombinant FtsH5 fusion protein, nickel resin-purified (from UniProt Q9FH02) (enzyme)”, the binding entry is “binds”.

The record behind these values is publication PMC5915565.
